PubChem BioAssay AID1224826, NIAID | 2016
In all, the deposit lists about 17,000 reagents; below is a random part of them. In the full data, about 1,110 (6.6%) are marked active. 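Active means lowered or raised reporter signal; replicate intensities are raw and not normalised per plate.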 Further read-outs or replicates are left out here.

Assay: 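Regulators of Tlr4 signalling leading to Tnf-alpha expression in macrophages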 (primary screen)
Cells: RAW264.7 G9 macrophages from mouse bearing reporters for p65 (GFP) and the Tnf promoter (mCherry)
Reagents: siRNA pool against mouse genes, 100 nM
Timing: 16 h of LPS stimulation, after 2 days of siRNA transfection
Challenge: bacterial lipopolysaccharide (Salmonella minnesota R595), 10 ng/ml
Measurement: 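Nuclear mCherry signal of the Tnf promoter reporter measured by imaging after background removal, scaled to each plate median and turned into robust z-scores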
Direction: Tnf reporter robust z-score: higher = stronger Tnf promoter reporter signal after LPS
Hit rule: 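a well counts as active at a score of -1.3 or below (Tlr4 knock-down control median) or above 3 (raised signal); controls and wells holding fewer than 50 cells are excluded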
Meaning of the calls: active = Tnf reporter clearly lowered or raised; inactive = no clear change in Tnf reporter

For Vmn1r234 (vomeronasal 1 receptor 234) [SID315477308], the values are fewer than 50 cells in well fewer than 50 cells per well; well left out of calls; inactive.
With knock-down of Slc39a6 [SID315476573] the results were fewer than 50 cells in well fewer than 50 cells per well; well left out of calls; inactive.
Nptx2 (neuronal pentraxin 2) [SID315471044] gave Tnf reporter robust z-score -0.09; fewer than 50 cells in well enough cells in well; inactive.
After knock-down of Fgf16 (fibroblast growth factor 16) [SID315475749], the record shows Tnf reporter robust z-score -0.27; fewer than 50 cells in well enough cells in well; inactive.
Silencing of Galns (galactosamine (N-acetyl)-6-sulfatase) [SID315470884] resulted in: Tnf reporter robust z-score -0.06; fewer than 50 cells in well enough cells in well; inactive.
Slc2a3 [SID315469301] gave Tnf reporter robust z-score 0.08; fewer than 50 cells in well enough cells in well; inactive.
After knock-down of Dph6 (diphthamine biosynthesis 6) [SID315472553], the record shows Tnf reporter robust z-score 0.11; fewer than 50 cells in well enough cells in well; inactive.
Against Cct6a (chaperonin containing TCP1 subunit 6A) [SID315465832] the deposit lists Tnf reporter robust z-score 0.28; fewer than 50 cells in well enough cells in well; inactive.
For Ehd3 (EH-domain containing 3) [SID315471793], the entry reads Tnf reporter robust z-score -0.8; fewer than 50 cells in well enough cells in well; inactive.
Depletion of Vmp1 (vacuole membrane protein 1) [SID315475220] came out at: Tnf reporter robust z-score 1.34; fewer than 50 cells in well enough cells in well; inactive.
Knock-down of Dchs1 (dachsous cadherin related 1) [SID315479094] came out at: Tnf reporter robust z-score -0.73; fewer than 50 cells in well enough cells in well; inactive.
Zmat3 (zinc finger matrin type 3) [SID315470032] gave Tnf reporter robust z-score -0.74; fewer than 50 cells in well enough cells in well; inactive.
Ap5s1 (adaptor-related protein 5 complex, sigma 1 subunit) [SID315473843] gave fewer than 50 cells in well fewer than 50 cells per well; well left out of calls; inactive.
Against Tnfrsf11a [SID315469764] the deposit lists Tnf reporter robust z-score 0.51; fewer than 50 cells in well enough cells in well; inactive.
For Kbtbd12 (kelch repeat and BTB (POZ) domain containing 12) [SID315475010], the values are Tnf reporter robust z-score 0.21; fewer than 50 cells in well enough cells in well; inactive.
Depletion of Prpf19 (pre-mRNA processing factor 19) [SID315470654] gave: fewer than 50 cells in well fewer than 50 cells per well; well left out of calls; inactive.
Psip1 (PC4 and SFRS1 interacting protein 1) [SID315476296] showed Tnf reporter robust z-score -1.24; fewer than 50 cells in well enough cells in well; inactive.
Against Spata19 (spermatogenesis associated 19) [SID315475130], the entry reads Tnf reporter robust z-score -0.42; fewer than 50 cells in well enough cells in well; inactive.
Knock-down of Calb2 (calbindin 2) [SID315465726] gave: Tnf reporter robust z-score -0.37; fewer than 50 cells in well enough cells in well; inactive.
Knock-down of Dnase1l3 (deoxyribonuclease 1-like 3) [SID315466352] came out at: fewer than 50 cells in well fewer than 50 cells per well; well left out of calls; inactive.
Ar (androgen receptor) [SID315465487] scored Tnf reporter robust z-score -0.16; fewer than 50 cells in well enough cells in well; inactive.
Nags (N-acetylglutamate synthase) [SID315478092] gave Tnf reporter robust z-score -0.76; fewer than 50 cells in well enough cells in well; inactive.
After knock-down of Tnnt1 (troponin T1, skeletal, slow) [SID315469784], the screen gave Tnf reporter robust z-score 0.61; fewer than 50 cells in well enough cells in well; inactive.
After knock-down of Orm2 (orosomucoid 2) [SID315468348], the record shows Tnf reporter robust z-score -0.98; fewer than 50 cells in well enough cells in well; inactive.
For Derl2 (Der1-like domain family, member 2) [SID315477069], the values are Tnf reporter robust z-score 0.42; fewer than 50 cells in well enough cells in well; inactive.
After knock-down of Azgp1 (alpha-2-glycoprotein 1, zinc) [SID315465586], the record shows Tnf reporter robust z-score 0.18; fewer than 50 cells in well enough cells in well; inactive.
With knock-down of Cyp2r1 (cytochrome P450, family 2, subfamily r, polypeptide 1) [SID315479745] the results were Tnf reporter robust z-score 0.53; fewer than 50 cells in well enough cells in well; inactive.

Copied from the list:
Under “call”, Slc2a3 [SID315469301] reads inactive
Under “fewer than 50 cells in well”, Ar (androgen receptor) [SID315465487] shows enough cells in well
